From the supplement of paper PMC4604168 (melanoma cell lines)
The other results are listed elsewhere or left out. Many values rest on one well or one pass, so single values are uncertain.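 Cells were imaged in 1,536-well plates, and nuclei stained with an antibody against cleaved PARP were counted against all DNA-stained nuclei to give the apoptosis fraction. Screening doses were chosen to leave most cells alive, and resting and induced cleaved-PARP levels differ strongly between cell lines.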

How the values were obtained:
Test in all cases: cleaved PARP positive nuclei fraction relative to DMSO control; melanoma cells; higher = more apoptosis
Details in all cases: library dose: low library concentration; 72 h
MZ2-MEL = system: MZ2-MEL
MeWo = system: MeWo
RPMI7951 = system: RPMI7951
RVH-421 = system: RVH-421
SkMel28 = system: SkMel28
SkMel2 = system: SkMel2
SkMel30 = system: SkMel30
SkMel5 = system: SkMel5
UACC257 = system: UACC257
UACC62 = system: UACC62

`COc1ccc(C2=N[C@@H](c3ccc(Cl)cc3)[C@@H](c3ccc(Cl)cc3)N2C(=O)N2CCNC(=O)C2)c(OC(C)C)c1` [Nutlin-3] + Cc1cc(N2CCOCC2)cc2[nH]c(-c3c(NC[C@@H](O)c4cccc(Cl)c4)cc[nH]c3=O)nc12 [BMS536924] (first compound 0.1 µM, partner dose 0.2 µM) was tested, and the “cleaved PARP positive nuclei fraction” value (MZ2-MEL) was 180%, the “cleaved PARP positive nuclei fraction” value (MeWo) was 425% and the “cleaved PARP positive nuclei fraction” value (RPMI7951) was 40.7%. The “cleaved PARP positive nuclei fraction” value (RVH-421) was 124%, the “cleaved PARP positive nuclei fraction” value (SkMel28) was 112% and the “cleaved PARP positive nuclei fraction” value (SkMel2) was 270%. The “cleaved PARP positive nuclei fraction” value (SkMel30) was 178%, the “cleaved PARP positive nuclei fraction” value (SkMel5) was 147% and the “cleaved PARP positive nuclei fraction” value (UACC257) was 106%. The “cleaved PARP positive nuclei fraction” value (UACC62) was 95.9%.

With `C[C@]1(O)C[C@@H](c2nc(-c3ccc4ccc(-c5ccccc5)nc4c3)c3c(N)nccn32)C1` + O=C(O)c1ccc(-c2c[nH]c3ncc(-c4ccccc4)cc23)cc1C1CCCC1 [GSK650394] (first compound 0.4 µM, partner dose 0.16 µM) the “cleaved PARP positive nuclei fraction” value (MZ2-MEL) was 293%, the “cleaved PARP positive nuclei fraction” value (MeWo) was 72.8% and the “cleaved PARP positive nuclei fraction” value (RPMI7951) was 43.4%. For the same compound, the “cleaved PARP positive nuclei fraction” value (RVH-421) was 79%, the “cleaved PARP positive nuclei fraction” value (SkMel28) was 53.2% and the “cleaved PARP positive nuclei fraction” value (SkMel2) was 210%. The “cleaved PARP positive nuclei fraction” value (SkMel30) was 67.4%, the “cleaved PARP positive nuclei fraction” value (SkMel5) was 224% and the “cleaved PARP positive nuclei fraction” value (UACC257) was 146%. The “cleaved PARP positive nuclei fraction” value (UACC62) was 120%.

For `C[C@]1(O)C[C@@H](c2nc(-c3ccc4ccc(-c5ccccc5)nc4c3)c3c(N)nccn32)C1` + COc1cc(N2CCC(N3CCN(C)CC3)CC2)ccc1Nc1ncc(Cl)c(Nc2ccccc2S(=O)(=O)C(C)C)n1 [NVP-TAE684] (first compound 0.4 µM, partner dose 0.08 µM), the “cleaved PARP positive nuclei fraction” value (MZ2-MEL) was 75%, the “cleaved PARP positive nuclei fraction” value (MeWo) was 22.1% and the “cleaved PARP positive nuclei fraction” value (RPMI7951) was 33.9%. The “cleaved PARP positive nuclei fraction” value (RVH-421) was 42.5%, the “cleaved PARP positive nuclei fraction” value (SkMel28) was 98.1% and the “cleaved PARP positive nuclei fraction” value (SkMel2) was 91.6%. The “cleaved PARP positive nuclei fraction” value (SkMel30) was 207%, the “cleaved PARP positive nuclei fraction” value (SkMel5) was 76.9% and the “cleaved PARP positive nuclei fraction” value (UACC257) was 545%. For the same compound, the “cleaved PARP positive nuclei fraction” value (UACC62) was 210%.

With `CCCCCCCCc1ccc(CCC(N)(CO)CO)cc1` [fingolimod] + CC(C)CCN1c2nc(Nc3cc(F)c(O)c(F)c3)ncc2N(C)C(=O)C1C [BID1870] (first compound 2 µM, partner dose 0.2 µM) the “cleaved PARP positive nuclei fraction” value (MZ2-MEL) was 41%, the “cleaved PARP positive nuclei fraction” value (MeWo) was 186% and the “cleaved PARP positive nuclei fraction” value (RPMI7951) was 103%. For the same compound, the “cleaved PARP positive nuclei fraction” value (RVH-421) was 97.8%, the “cleaved PARP positive nuclei fraction” value (SkMel28) was 286% and the “cleaved PARP positive nuclei fraction” value (SkMel2) was 228%. For the same compound, the “cleaved PARP positive nuclei fraction” value (SkMel30) was 82.6%, the “cleaved PARP positive nuclei fraction” value (SkMel5) was 78.1% and the “cleaved PARP positive nuclei fraction” value (UACC257) was 252%. The “cleaved PARP positive nuclei fraction” value (UACC62) was 74.8%.

`CC(=O)O[C@@]12CO[C@@H]1C[C@H](O)[C@@]1(C)C(=O)[C@H](O)C3=C(C)[C@@H](OC(=O)[C@H](O)[C@@H](NC(=O)OC(C)(C)C)c4ccccc4)C[C@@](O)([C@@H](OC(=O)c4ccccc4)[C@H]21)C3(C)C` [Docetaxel] + COc1ccc2c(c1)CCC1C2CCC2(C)C(NCCCCCCN3C(=O)C=CC3=O)CCC12 [U73122] (first compound 0.0001 µM, partner dose 0.4 µM) was tested, and the “cleaved PARP positive nuclei fraction” value (MZ2-MEL) was 369%, the “cleaved PARP positive nuclei fraction” value (MeWo) was 398% and the “cleaved PARP positive nuclei fraction” value (RPMI7951) was 202%. The “cleaved PARP positive nuclei fraction” value (RVH-421) was 225%, the “cleaved PARP positive nuclei fraction” value (SkMel28) was 824% and the “cleaved PARP positive nuclei fraction” value (SkMel2) was 547%. For the same compound, the “cleaved PARP positive nuclei fraction” value (SkMel30) was 334%, the “cleaved PARP positive nuclei fraction” value (SkMel5) was 98.2% and the “cleaved PARP positive nuclei fraction” value (UACC257) was 654%. The “cleaved PARP positive nuclei fraction” value (UACC62) was 494%.

`COc1ccc(C2=N[C@@H](c3ccc(Cl)cc3)[C@@H](c3ccc(Cl)cc3)N2C(=O)N2CCNC(=O)C2)c(OC(C)C)c1` [Nutlin-3] + CC1(C)NC(=O)N(c2ccc([N+](=O)[O-])c(C(F)(F)F)c2)C1=O [nilutamide] (first compound 0.1 µM, partner dose 1 µM) was tested, and the “cleaved PARP positive nuclei fraction” value (MZ2-MEL) was 138%, the “cleaved PARP positive nuclei fraction” value (MeWo) was 204% and the “cleaved PARP positive nuclei fraction” value (RPMI7951) was 45%. The “cleaved PARP positive nuclei fraction” value (RVH-421) was 118%, the “cleaved PARP positive nuclei fraction” value (SkMel28) was 58.2% and the “cleaved PARP positive nuclei fraction” value (SkMel2) was 87%. For the same compound, the “cleaved PARP positive nuclei fraction” value (SkMel30) was 53.1%, the “cleaved PARP positive nuclei fraction” value (SkMel5) was 214% and the “cleaved PARP positive nuclei fraction” value (UACC257) was 257%. The “cleaved PARP positive nuclei fraction” value (UACC62) was 141%.

In the case of `NC(=O)c1ccc(N(C(N)=O)c2c(F)cccc2F)nc1-c1ccc(F)cc1F` + CN(C)S(=O)(=O)c1ccc2c(c1)/C(=C/c1cc3c([nH]1)CCCC3)C(=O)N2 [SU6656] (first compound 0.4 µM, partner dose 0.4 µM), the “cleaved PARP positive nuclei fraction” value (MZ2-MEL) is reported as 216%, the “cleaved PARP positive nuclei fraction” value (MeWo) is reported as 121% and the “cleaved PARP positive nuclei fraction” value (RPMI7951) is reported as 59.4%. The “cleaved PARP positive nuclei fraction” value (RVH-421) was 73.6%, the “cleaved PARP positive nuclei fraction” value (SkMel28) was 355% and the “cleaved PARP positive nuclei fraction” value (SkMel2) was 33.8%. For the same compound, the “cleaved PARP positive nuclei fraction” value (SkMel30) was 62.6%, the “cleaved PARP positive nuclei fraction” value (SkMel5) was 55.4% and the “cleaved PARP positive nuclei fraction” value (UACC257) was 129%. The “cleaved PARP positive nuclei fraction” value (UACC62) was 158%.

In the case of `CC1(C)CCC(c2ccc(Cl)cc2)=C(CN2CCN(c3ccc(C(=O)NS(=O)(=O)c4ccc(N[C@H](CCN5CCOCC5)CSc5ccccc5)c(S(=O)(=O)C(F)(F)F)c4)cc3)CC2)C1` + Cc1ccc(NC(=O)c2cccc(N(C)C)c2)cc1NC(=O)c1ccc(O)cc1 [ZM336372] (first compound 0.4 µM, partner dose 2 µM), the “cleaved PARP positive nuclei fraction” value (MZ2-MEL) is reported as 368%, the “cleaved PARP positive nuclei fraction” value (MeWo) is reported as 166% and the “cleaved PARP positive nuclei fraction” value (RPMI7951) is reported as 281%. The “cleaved PARP positive nuclei fraction” value (RVH-421) was 62.6%, the “cleaved PARP positive nuclei fraction” value (SkMel28) was 293% and the “cleaved PARP positive nuclei fraction” value (SkMel2) was 141%. The “cleaved PARP positive nuclei fraction” value (SkMel30) was 100%, the “cleaved PARP positive nuclei fraction” value (SkMel5) was 48.5% and the “cleaved PARP positive nuclei fraction” value (UACC257) was 176%. For the same compound, the “cleaved PARP positive nuclei fraction” value (UACC62) was 148%.

`CC1(C)CCC(c2ccc(Cl)cc2)=C(CN2CCN(c3ccc(C(=O)NS(=O)(=O)c4ccc(N[C@H](CCN5CCOCC5)CSc5ccccc5)c(S(=O)(=O)C(F)(F)F)c4)cc3)CC2)C1` + CC(C)(C)c1cnc(CSc2cnc(NC(=O)C3CCNCC3)s2)o1 [SNS-032] (first compound 0.4 µM, partner dose 0.01 µM) was tested, and the “cleaved PARP positive nuclei fraction” value (MZ2-MEL) was 354%, the “cleaved PARP positive nuclei fraction” value (MeWo) was 109% and the “cleaved PARP positive nuclei fraction” value (RPMI7951) was 130%. The “cleaved PARP positive nuclei fraction” value (RVH-421) was 127%, the “cleaved PARP positive nuclei fraction” value (SkMel28) was 35.4% and the “cleaved PARP positive nuclei fraction” value (SkMel2) was 293%. The “cleaved PARP positive nuclei fraction” value (SkMel30) was 83.7%, the “cleaved PARP positive nuclei fraction” value (SkMel5) was 569% and the “cleaved PARP positive nuclei fraction” value (UACC257) was 152%. For the same compound, the “cleaved PARP positive nuclei fraction” value (UACC62) was 25.8%.
